Laboratory results reported in the supplement of paper PMC3353916.

System: Sindbis virus TE/5'2J-GFP
Assay: percent infected (GFP+ in RFP+ ISG-expressing cells); higher = more infection (less antiviral activity)
Conditions: experiment: primary screen (single well)

Row | Sequence | percent infected (BHK/NZAP-Zeo (ZAP)) [%] | percent infected (BHK/HA-Zeo (control)) [%]
1 | MSKAHKPWPYRRRSQFSSRKYLKKEMNSFQQQPPPFGTVPPQMMFPPNWQGAEKDAAFLAKDFNFLTLNNQPPPGNRSQPRAMGPENNLYSQYEQKVRPCIDLIDSLRALGVEQDLALPAIAVIGDQSSGKSSVLEALSGVALPRGSGIVTRCPLVLKLKKQPCEAWAGRISYRNTELELQDPGQVEKEIHKAQNVMAGNGRGISHELISLEITSPEVPDLTIIDLPGITRVAVDNQPRDIGLQIKALIKKYIQRQQTINLVVVPCNVDIATTEALSMAHEVDPEGDRTIGILTKPDLMDRGTEKSVMNVVRNLTYPLKKGYMIVKCRGQQEITNRLSLAEATKKEITFFQTHPYFRVLLEEGSATVPRLAERLTTELIMHIQKSLPLLEGQIRESHQKATEELRRCGADIPSQEADKMFFLIEKIKMFNQDIEKLVEGEEVVRENETRLYNKIREDFKNWVGILATNTQKVKNIIHEEVEKYEKQYRGKELLGFVNYKTFEIIVHQYIQQLVEPALSMLQKAMEIIQQAFINVAKKHFGEFFNLNQTVQSTIEDIKVKHTAKAENMIQLQFRMEQMVFCQDQIYSVVLKKVREEIFNPLGTPSQNMKLNSHFPSNESSVSSFTEIGIHLNAYFLETSKRLANQIPFIIQYFMLRENGDSLQKAMMQILQEKNRYSWLLQEQSETATKRRILKERIYRLTQARHALCQFSSKEIH [MX2] | 97.8 | –
2 | MSLLQSALDFLAGPGSLGGASGRDQSDFVGQTVELGELRLRVRRVLAEGGFAFVYEAQDVGSGREYALKRLLSNEEEKNRAIIQEVCFMKKLSGHPNIVQFCSAASIGKEESDTGQAEFLLLTELCKGQLVEFLKKMESRGPLSCDTVLKIFYQTCRAVQHMHRQKPPIIHRDLKVENLLLSNQGTIKLCDFGSATTISHYPDYSWSAQRRALVEEEITRNTTPMYRTPEIIDLYSNFPIGEKQDIWALGCILYLLCFRQHPFEDGAKLRIVNGKYSIPPHDTQYTVFHSLIRAMLQVNPEERLSIAEVVHQLQEIAAARNVNPKSPITELLEQNGGYGSATLSRGPPPPVGPAGSGYSGGLALAEYDQPYGGFLDILRGGTERLFTNLKDTSSKVIQSVANYAKGDLDISYITSRIAVMSFPAEGVESALKNNIEDVRLFLDSKHPGHYAVYNLSPRTYRPSRFHNRVSECGWAARRAPHLHTLYNICRNMHAWLRQDHKNVCVVHCMDGRAASAVAVCSFLCFCRLFSTAEAAVYMFSMKRCPPGIWPSHKRYIEYMCDMVAEEPITPHSKPILVRAVVMTPVPLFSKQRSGCRPFCEVYVGDERVASTSQEYDKMRDFKIEDGKAVIPLGVTVQGDVLIVIYHARSTLGGRLQAKMASMKMFQIQFHTGFVPRNATTVKFAKYDLDACDIQEKYPDLFQVNLEVEVEPRDRPSREAPPWENSSMRGLNPKILFSSREEQQDILSKFGKPELPRQPGSTAQYDAGAGSPEAEPTDSDSPPSSSADASRFLHTLDWQEEKEAETGAENASSKESESALMEDRDESEVSDEGGSPISSEGQEPRADPEPPGLAAGLVQQDLVFEVETPAVLPEPVPQEDGVDLLGLHSEVGAGPAVPPQACKAPSSNTDLLSCLLGPPEAASQGPPEDLLSEDPLLLASPAPPLSVQSTPRGGPPAAADPFGPLLPSSGNNSQPCSNPDLFGEFLNSDSVTVPPSFPSAHSAPPPSCSADFLHLGDLPGEPSKMTASSSNPDLLGGWAAWTETAASAVAPTPATEGPLFSPGGQPAPCGSQASWTKSQNPDPFADLGDLSSGLQGSPAGFPPGGFIPKTATTPKGSSSWQTSRPPAQGASWPPQAKPPPKACTQPRPNYASNFSVIGAREERGVRAPSFAQKPKVSENDFEDLLSNQGFSSRSDKKGPKTIAEMRKQDLAKDTDPLKLKLLDWIEGKERNIRALLSTLHTVLWDGESRWTPVGMADLVAPEQVKKHYRRAVLAVHPDKAAGQPYEQHAKMIFMELNDAWSEFENQGSRPLF | 96.5 | 98.2
3 | MSLRGSLSRLLQTRVHSILKKSVHSVAVIGAPFSQGQKRKGVEHGPAAIREAGLMKRLSSLGCHLKDFGDLSFTPVPKDDLYNNLIVNPRSVGLANQELAEVVSRAVSDGYSCVTLGGDHSLAIGTISGHARHCPDLCVVWVDAHADINTPLTTSSGNLHGQPVSFLLRELQDKVPQLPGFSWIKPCISSASIVYIGLRDVDPPEHFILKNYDIQYFSMRDIDRLGIQKVMERTFDLLIGKRQRPIHLSFDIDAFDPTLAPATGTPVVGGLTYREGMYIAEEIHNTGLLSALDLVEVNPQLATSEEEAKTTANLAVDVIASSFGQTREGGHIVYDQLPTPSSPDESENQARVRI [ARG2] | 82.6 | 94.9

Single values of this set are uncertain.
